{"source": "PubChem BioAssay AID504808 (Drosophila RNAi Screening Center, 2011)", "test": "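Fly genes required to hold E2F transcription in check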 (primary screen)", "cell system": "Drosophila S2 cells", "knock-down reagent": "long dsRNA against Drosophila genes", "detection": "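Dual luciferase plate measurements; E2F-specific signal taken as firefly over Renilla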", "scale": "E2F firefly: higher = more E2F reporter activity; Renilla normaliser: higher = more normaliser reporter signal", "rule for the call": "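Called active if the normalised E2F reporter went up by over 50%; the cutoff is arbitrary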", "note": "In all, the deposit lists about 21,000 reagents; below is an unselected part of those that have a named target and a result. In the full data, 18 (0.084%) were called active. 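Raw counts without plate normalisation, one of two replicates; the ratio scores behind the calls were not deposited.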 Names joined by + are all predicted targets of the reagent. Not given: the amount of reagent, the time to read-out."}
{"gene": "CG30269", "dsRNA": "DRSC04158", "E2F firefly, rep 1": 94342, "Renilla normaliser, rep 1": 3856, "activity call": "inactive"}
{"gene": "be", "dsRNA": "DRSC19607", "E2F firefly, rep 1": 8206, "Renilla normaliser, rep 1": 768, "activity call": "inactive"}
{"gene": "be", "dsRNA": "DRSC19944", "E2F firefly, rep 1": 1.28e5, "Renilla normaliser, rep 1": 6488, "activity call": "inactive"}
{"gene": "be", "dsRNA": "DRSC19945", "E2F firefly, rep 1": 1.54e5, "Renilla normaliser, rep 1": 6611, "activity call": "inactive"}
{"gene": "Obp19d", "dsRNA": "DRSC20569", "E2F firefly, rep 1": 1.40e5, "Renilla normaliser, rep 1": 5451, "activity call": "inactive"}
{"gene": "pyx", "dsRNA": "DRSC08510", "E2F firefly, rep 1": 94567, "Renilla normaliser, rep 1": 4198, "activity call": "inactive"}
{"gene": "pyx", "dsRNA": "DRSC08511", "E2F firefly, rep 1": 84038, "Renilla normaliser, rep 1": 4192, "activity call": "inactive"}
{"gene": "RpS27A", "dsRNA": "DRSC03421", "E2F firefly, rep 1": 1.26e5, "Renilla normaliser, rep 1": 6054, "activity call": "inactive"}
{"gene": "Ythdc1", "dsRNA": "DRSC08141", "E2F firefly, rep 1": 69063, "Renilla normaliser, rep 1": 3120, "activity call": "inactive"}
{"gene": "CG6040", "dsRNA": "DRSC15954", "E2F firefly, rep 1": 73044, "Renilla normaliser, rep 1": 3486, "activity call": "inactive"}
{"gene": "CG15172", "dsRNA": "DRSC02473", "E2F firefly, rep 1": 1.01e5, "Renilla normaliser, rep 1": 4190, "activity call": "inactive"}
{"gene": "Nep2", "dsRNA": "DRSC12126", "E2F firefly, rep 1": 91843, "Renilla normaliser, rep 1": 3880, "activity call": "inactive"}
{"gene": "CG3520", "dsRNA": "DRSC04383", "E2F firefly, rep 1": 1.01e5, "Renilla normaliser, rep 1": 4404, "activity call": "inactive"}
{"gene": "nAChRalpha7", "dsRNA": "DRSC20078", "E2F firefly, rep 1": 1.37e5, "Renilla normaliser, rep 1": 470, "activity call": "inactive"}
{"gene": "nAChRalpha7", "dsRNA": "DRSC20081", "E2F firefly, rep 1": 1.34e5, "Renilla normaliser, rep 1": 5978, "activity call": "inactive"}
{"gene": "side-II", "dsRNA": "DRSC01427", "E2F firefly, rep 1": 1.40e5, "Renilla normaliser, rep 1": 7638, "activity call": "inactive"}
{"gene": "side-II", "dsRNA": "DRSC01429", "E2F firefly, rep 1": 1.33e5, "Renilla normaliser, rep 1": 6727, "activity call": "inactive"}
{"gene": "side-II", "dsRNA": "DRSC01913", "E2F firefly, rep 1": 1.07e5, "Renilla normaliser, rep 1": 4083, "activity call": "inactive"}
{"gene": "side-II", "dsRNA": "DRSC01932", "E2F firefly, rep 1": 94273, "Renilla normaliser, rep 1": 4055, "activity call": "inactive"}
{"gene": "side-II", "dsRNA": "DRSC02480", "E2F firefly, rep 1": 96757, "Renilla normaliser, rep 1": 4117, "activity call": "inactive"}
{"gene": "elg1", "dsRNA": "DRSC10229", "E2F firefly, rep 1": 69973, "Renilla normaliser, rep 1": 3623, "activity call": "inactive"}
{"gene": "CG17124", "dsRNA": "DRSC02580", "E2F firefly, rep 1": 1.51e5, "Renilla normaliser, rep 1": 4970, "activity call": "inactive"}
{"gene": "beta3GalTII", "dsRNA": "DRSC07253", "E2F firefly, rep 1": 1.50e5, "Renilla normaliser, rep 1": 4394, "activity call": "inactive"}
{"gene": "Scamp", "dsRNA": "DRSC20286", "E2F firefly, rep 1": 1.73e5, "Renilla normaliser, rep 1": 17960, "activity call": "inactive"}
{"gene": "CG13510", "dsRNA": "DRSC04152", "E2F firefly, rep 1": 1.14e5, "Renilla normaliser, rep 1": 4707, "activity call": "inactive"}
{"gene": "stet", "dsRNA": "DRSC08246", "E2F firefly, rep 1": 98945, "Renilla normaliser, rep 1": 4336, "activity call": "inactive"}
{"gene": "stet", "dsRNA": "DRSC08283", "E2F firefly, rep 1": 1.03e5, "Renilla normaliser, rep 1": 3891, "activity call": "inactive"}
{"gene": "CG31076", "dsRNA": "DRSC16017", "E2F firefly, rep 1": 1.20e5, "Renilla normaliser, rep 1": 5756, "activity call": "inactive"}
{"gene": "CG14453", "dsRNA": "DRSC11710", "E2F firefly, rep 1": 1.33e5, "Renilla normaliser, rep 1": 7281, "activity call": "inactive"}
{"gene": "CG30002", "dsRNA": "DRSC05182", "E2F firefly, rep 1": 1.40e5, "Renilla normaliser, rep 1": 6488, "activity call": "inactive"}
{"gene": "Membrin", "dsRNA": "DRSC10448", "E2F firefly, rep 1": 1.12e5, "Renilla normaliser, rep 1": 3972, "activity call": "inactive"}
{"gene": "trh", "dsRNA": "DRSC08355", "E2F firefly, rep 1": 98257, "Renilla normaliser, rep 1": 4601, "activity call": "inactive"}
{"gene": "trh", "dsRNA": "DRSC08739", "E2F firefly, rep 1": 97368, "Renilla normaliser, rep 1": 3677, "activity call": "inactive"}
{"gene": "Hsp70Bb + Hsp70Ba + Hsp70Bc + 1 more", "dsRNA": "DRSC21247", "E2F firefly, rep 1": 91006, "Renilla normaliser, rep 1": 6770, "activity call": "inactive"}
{"gene": "Hsp70Bb + Hsp70Ba + Hsp70Bc + 1 more", "dsRNA": "DRSC21248", "E2F firefly, rep 1": 85996, "Renilla normaliser, rep 1": 6565, "activity call": "inactive"}
{"gene": "mbo", "dsRNA": "DRSC16123", "E2F firefly, rep 1": 70393, "Renilla normaliser, rep 1": 3794, "activity call": "inactive"}

Sorted by “Renilla normaliser, rep 1” (low to high): some entries from above
{"gene": "pyx", "dsRNA": "DRSC08511", "E2F firefly, rep 1": 84038, "Renilla normaliser, rep 1": 4192, "activity call": "inactive"}
{"gene": "pyx", "dsRNA": "DRSC08510", "E2F firefly, rep 1": 94567, "Renilla normaliser, rep 1": 4198, "activity call": "inactive"}
{"gene": "Obp19d", "dsRNA": "DRSC20569", "E2F firefly, rep 1": 1.40e5, "Renilla normaliser, rep 1": 5451, "activity call": "inactive"}
